## Primary screen of a compound library

Sequences of proteins named here, by UniProt entry; tags and fusion partners are left off. Residues count along the entry.
UniProt A4I591, 1-473: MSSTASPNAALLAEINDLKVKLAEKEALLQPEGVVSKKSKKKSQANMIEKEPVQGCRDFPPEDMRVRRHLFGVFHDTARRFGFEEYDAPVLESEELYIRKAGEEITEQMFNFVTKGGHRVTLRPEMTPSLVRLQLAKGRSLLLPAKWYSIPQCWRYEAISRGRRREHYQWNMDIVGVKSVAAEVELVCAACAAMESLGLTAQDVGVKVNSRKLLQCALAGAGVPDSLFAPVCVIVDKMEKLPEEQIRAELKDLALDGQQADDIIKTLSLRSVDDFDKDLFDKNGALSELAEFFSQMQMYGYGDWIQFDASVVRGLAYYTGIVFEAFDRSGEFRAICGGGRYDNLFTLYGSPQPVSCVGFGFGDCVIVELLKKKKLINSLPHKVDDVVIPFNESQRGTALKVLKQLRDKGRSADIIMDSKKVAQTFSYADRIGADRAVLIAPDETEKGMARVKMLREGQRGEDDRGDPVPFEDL
UniProt P9WFT3, whole entry: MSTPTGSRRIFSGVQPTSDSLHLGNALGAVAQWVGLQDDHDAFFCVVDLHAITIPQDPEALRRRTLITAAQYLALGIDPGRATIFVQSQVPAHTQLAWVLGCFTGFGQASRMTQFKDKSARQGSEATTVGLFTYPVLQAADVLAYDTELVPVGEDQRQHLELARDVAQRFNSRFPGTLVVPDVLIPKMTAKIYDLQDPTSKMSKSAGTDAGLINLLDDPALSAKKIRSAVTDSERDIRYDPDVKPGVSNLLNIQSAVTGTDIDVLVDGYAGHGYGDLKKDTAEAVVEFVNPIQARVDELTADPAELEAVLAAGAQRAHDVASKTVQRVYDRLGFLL
UniProt P9WNZ1, whole entry: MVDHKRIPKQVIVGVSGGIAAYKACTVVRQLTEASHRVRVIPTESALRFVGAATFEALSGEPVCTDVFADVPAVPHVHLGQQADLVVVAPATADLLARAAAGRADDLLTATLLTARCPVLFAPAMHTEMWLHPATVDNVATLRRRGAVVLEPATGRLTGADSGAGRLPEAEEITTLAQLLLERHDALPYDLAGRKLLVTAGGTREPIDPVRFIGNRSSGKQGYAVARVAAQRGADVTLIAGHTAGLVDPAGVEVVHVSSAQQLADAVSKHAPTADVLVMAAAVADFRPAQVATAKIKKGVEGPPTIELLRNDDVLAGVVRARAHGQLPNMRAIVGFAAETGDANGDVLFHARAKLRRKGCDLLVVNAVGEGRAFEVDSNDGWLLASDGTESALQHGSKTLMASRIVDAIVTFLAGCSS

Values are the deposited “Percent Effect”, in %. How 0% and 100% were set is not recorded. Most values in the screen are low, and negative values occur. This is an unselected part of the compounds tested. Two or more numbers in one place are separate tests of the same structure; such repeats can differ widely.

LiHisRS: 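Histidine-tRNA ligase, Leishmania infantum (UniProt A4I591). Enzyme assay of histidyl-tRNA synthetase; the read-out is not stated. Tested at 30 µM. Higher reads as stronger inhibition (inferred: compounds with an IC50 in retests scored well above the rest). The assay is labelled LdHisRS but filed under L. infantum. About 69,000 compounds were tested under these conditions; 0.6% (about 410) showed 50% or more at least once.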
MtTrpRS: 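Tryptophan-tRNA ligase, Mycobacterium tuberculosis (UniProt P9WFT3). Enzyme assay of tryptophanyl-tRNA synthetase; the read-out is not stated. Concentration: 10 µM. Direction is not recorded; retested compounds ran higher, which suggests that high means inhibition. Of about 65,000 compounds tested this way, about 64 (0.098%) reached 50% or more in at least one test.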
CoaBC: 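Coenzyme A biosynthesis protein CoaBC, Mycobacterium tuberculosis (UniProt P9WNZ1). Enzyme assay of CoaBC with a phosphate dye (Biomol Green) read at 650 nm. Compounds at 30 µM. Direction is inferred from only a few compounds that gave an IC50; most scored high, so higher reads as stronger inhibition. Most strong results did not repeat in a second test. Size under these conditions: about 67,000 compounds, about 40 of them at 50% or above in at least one test.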

{"compound": "NC(=O)c1cc2c(nc1Oc1ccc(CN3CCCC3)cc1F)CCC2", "LiHisRS": 18.03, "MtTrpRS": 1.098, "CoaBC": -6.34}
{"compound": "Cc1ccc(CN2Cc3c(cnn3C)C(COCC3CC3)C2)s1", "stereo": "stereo not shown", "LiHisRS": 29.03, "MtTrpRS": -3.604, "CoaBC": 5.302}
{"compound": "CCOc1cc(CNCCCn2ccnc2)cc(Cl)c1OCC", "LiHisRS": 11.67, "MtTrpRS": 12.14, "CoaBC": -49.89}
{"compound": "Cc1cccc(N(CCC(N)=O)C(=O)c2cc(-n3cccn3)ccn2)c1", "LiHisRS": 11.67, "MtTrpRS": 0.6791, "CoaBC": 0.9756}
{"compound": "CC(Nc1ccc(Oc2cccc(C#N)c2)cc1)C(=O)NC1CC1", "stereo": "stereo not shown", "LiHisRS": -2.74, "MtTrpRS": -1.56, "CoaBC": 5.579}
{"compound": "O=C(Cc1cccc(F)c1)N1C[C@H]2CN(Cc3cccnc3)C[C@H]2C1", "LiHisRS": 3.846, "MtTrpRS": -4.36, "CoaBC": 3.475}
{"compound": "Cc1ncsc1C(=O)N1CCCC1c1c(C)nn(C)c1C", "stereo": "stereo not shown", "LiHisRS": -5.181, "MtTrpRS": -0.9202, "CoaBC": -3.949}
{"compound": "CCc1[nH]c2c(CNc3cc(C)nc(NC)n3)cc(C)cc2c1C", "LiHisRS": 28.57, "MtTrpRS": 0.1324, "CoaBC": 0.6098}
{"compound": "CC(C)c1cccc(-n2cc(O)c(C(=O)O)n2)c1", "LiHisRS": 26.67, "MtTrpRS": 2.963, "CoaBC": 1.225}
{"compound": "Cc1nc(CN2CCCC(N(C)CCCc3ccccc3)C2)no1", "stereo": "stereo not shown", "LiHisRS": 10.91, "MtTrpRS": -7.497, "CoaBC": 1.276}
{"compound": "Cc1cccc(C2CCCN2C(=O)CN(C)S(C)(=O)=O)c1C", "stereo": "stereo not shown", "LiHisRS": 9.677, "MtTrpRS": 1.653, "CoaBC": 0.8464}
{"compound": "NC(=O)CCSCc1cc(Br)cc2cccnc12", "LiHisRS": 11.11, "MtTrpRS": 2.312, "CoaBC": 4.969}
{"compound": "COC(=O)N1C[C@H]2CC[C@@H]1CN(Cc1cscn1)C2", "LiHisRS": 22.86, "MtTrpRS": 3.592, "CoaBC": -7.895}
{"compound": "COC(=O)c1cccc(C(=O)N(C)Cc2cccc(O)c2)c1", "LiHisRS": 0, "MtTrpRS": 2.496, "CoaBC": -1.488}
{"compound": "CC(Oc1ccccc1C#N)C(=O)NC1CC1", "stereo": "stereo not shown", "LiHisRS": 14.04, "MtTrpRS": -5.932, "CoaBC": 6.048}
{"compound": "CC1CN(c2ccc(CNC(=O)NCCO)cn2)CCO1", "stereo": "stereo not shown", "LiHisRS": 12.7, "MtTrpRS": -0.3749, "CoaBC": 4.862}
{"compound": "CCn1cnc(NC(=O)N2CCC(c3ccc(Cl)cc3)C2)n1", "stereo": "stereo not shown", "LiHisRS": 19.74, "MtTrpRS": 15.45, "CoaBC": 6.452}
{"compound": "Cc1ccc(CN2CCCn3c(nc(CN4CCCC4)cc3=O)C2)s1", "LiHisRS": 11.76, "MtTrpRS": -5.081, "CoaBC": 2.703}
{"compound": "CS(=O)(=O)N1C[C@H](C(=O)Nc2cccnc2)[C@@H]2CCO[C@@H]2C1", "LiHisRS": 8, "MtTrpRS": -2.208, "CoaBC": -0.4926}
{"compound": "CS(=O)(=O)NC1CCN(C(=O)c2coc(CN3CCOCC3)c2)CC1", "LiHisRS": 12.9, "MtTrpRS": -1.051, "CoaBC": 4.562}
{"compound": "Cc1nn(C)c2ncc(NC(=O)N(C)Cc3cnn(C)c3)cc12", "LiHisRS": 2.618, "MtTrpRS": -6.069, "CoaBC": 3.043}
{"compound": "CCN(CC)CCNC(=O)CCc1c(C)nn(-c2ccc(Cl)cc2)c1C", "LiHisRS": 7.921, "CoaBC": 1.699}
{"compound": "c1ccc2c(c1)CC(n1ccnc1-c1cc3n(n1)CCNC3)CO2", "stereo": "stereo not shown", "LiHisRS": 9.167, "MtTrpRS": -5.065, "CoaBC": 1.863}
{"compound": "O=C(c1cccc(O)c1)N1CCC2(CCN2c2ncccn2)C1", "stereo": "stereo not shown", "LiHisRS": 15.96, "MtTrpRS": 5.124, "CoaBC": 0.1616}
{"compound": "Cc1cc(CN2CCCC(Cn3cncn3)C2)no1", "stereo": "stereo not shown", "LiHisRS": 10.26, "MtTrpRS": 20.16, "CoaBC": -11.26}
{"compound": "Cc1ncc(-c2ccnc(SCCN)n2)c(-c2ccco2)n1", "LiHisRS": 22.86, "CoaBC": -2.771}
{"compound": "CCN(CC)S(=O)(=O)N1CCc2nc(C3CCNCC3)ncc2C1", "LiHisRS": 4.124, "CoaBC": 2.421}
{"compound": "CN(C)CCn1c(=O)oc2ccc(NC(=O)C3CCCO3)cc21", "stereo": "stereo not shown", "LiHisRS": 53.4, "MtTrpRS": -0.7105, "CoaBC": -0.4464}
{"compound": "CN(C)c1ccc(C(=O)N2CCC(c3cc4cnccc4[nH]3)CC2)cc1", "LiHisRS": 2.797, "MtTrpRS": -0.4569, "CoaBC": "18.04 and 23.73"}
{"compound": "Cc1cccc(-c2ccc(C(=O)NCC3CCCO3)c(=O)[nH]2)c1", "stereo": "stereo not shown", "LiHisRS": 8.929, "MtTrpRS": -7.592, "CoaBC": 12.94}
{"compound": "Cc1noc(CN2CCN(C(=O)c3ccccn3)CC2)n1", "LiHisRS": 6.612, "MtTrpRS": -2.685, "CoaBC": 10.58}
{"compound": "CCN1CCC(CNC(=O)C2(c3cccc(C)c3)CCCCC2)CC1", "LiHisRS": 4.348, "MtTrpRS": -1.534, "CoaBC": 1.654}
{"compound": "CC(C)C(NC(=O)c1ccc(Cl)cc1Cl)C(=O)Nc1ccn(C)n1", "stereo": "stereo not shown", "LiHisRS": 8.772, "MtTrpRS": 2.058, "CoaBC": 1.21}
{"compound": "CCCn1nc2c(cc1=O)CN(CC(=O)N(C)c1nccs1)CC2", "LiHisRS": 24.6, "MtTrpRS": 6.049, "CoaBC": -2.211}
{"compound": "CC(C)c1ncc(Cl)c(C(=O)N2CCCN3CCCC3C2)n1", "stereo": "stereo not shown", "LiHisRS": 21.52, "MtTrpRS": 3.286, "CoaBC": 4.943}
{"compound": "c1cc(CNCC2Cn3nncc3CO2)co1", "stereo": "stereo not shown", "LiHisRS": 18, "MtTrpRS": -6.953, "CoaBC": 1.434}
{"compound": "CCc1nnc2n1CCN(C(=O)CN(C)Cc1ccccc1)C2", "LiHisRS": 19.7, "MtTrpRS": -3.021, "CoaBC": 10.18}
{"compound": "Cc1cc(N2CCC(n3cc(CN4CCC[C@@H]4CO)nn3)CC2)ccn1", "LiHisRS": 20.16, "MtTrpRS": 5.172, "CoaBC": 0.1229}
{"compound": "CCN(Cc1nc2c(cnn2C)c(=O)[nH]1)c1ccc(OC)c(OC)c1", "LiHisRS": 24.32, "MtTrpRS": 0.09747, "CoaBC": -0.2611}

Once more, the final 3:

compound	LiHisRS	MtTrpRS	CoaBC
CCc1nnc2n1CCN(C(=O)CN(C)Cc1ccccc1)C2	19.7	-3.021	10.18
Cc1cc(N2CCC(n3cc(CN4CCC[C@@H]4CO)nn3)CC2)ccn1	20.16	5.172	0.1229
CCN(Cc1nc2c(cnn2C)c(=O)[nH]1)c1ccc(OC)c(OC)c1	24.32	0.09747	-0.2611

Source: ChEMBL document CHEMBL3988442, “University of Dundee, Small-Polar-MMV Screening Library” (2021).